According to patent publication US5766620A, “Buccal delivery of glucagon-like insulinotropic peptides” (TheraTech, Inc., priority 1995, dated 1998):
At least one peptide structure holds a part that was inferred or is arguable (an end, a ring closure or a residue).

How the values were obtained:
blood glucose = assay: Blood glucose after buccal bilayer tablet, double-blind placebo-controlled crossover; settings: 400 μg buccal bilayer tablet
From the text: This example describes a double-blind, placebo-controlled, crossover comparison with random assignment to treatment sequence. […] Inclusion criteria for the volunteers were normal glucose tolerance, weight within 22<BMI<26, informed consent to participate in the study, and age between 20 and 60 years. Exclusion criteria were impaired glucose tolerance (2-hour glucose tolerance test; OGTT), gastrointestinal symptoms, ongoing medication or illness, acute infection, abnormal laboratory variables (hemoglobin, hematocrit, leucocytes, creatinine, bilirubin, calcium, potassium, sodium, alkaline phosphatase, gamma-GT, SGOT, SGPT, cholesterol, and triglycerides), and blood pressure greater than 185 mmHg systolic and/or 90 mmHg diastolic.
Subject numbers were allotted to the subjects in the order in which they were enrolled in the study. The number allotted to each subject determined the treatment sequence received. Subjects receiving treatment sequence 1 were treated with drug followed by placebo, and subjects receiving treatment sequence 2 were treated with placebo followed by drug.
Subjects were instructed to fast the night before a treatment. At the clinic, the subjects were given either a drug-containing bilayer tablet or placebo. At time 0 the bilayer tablet was applied to the gingiva with the active layer in contact with the tissue of the lip or inside of the cheek, and the subjects were placed in a rest position. The bilayer tablet was removed after 4.5 hours. No meals were allowed until a standard meal was given after 4.5 hours, and snacks were not permitted at any time. The standard meal contained 550 kcal, with 28%, 22%, and 50% of the energy from protein, fat, and carbohydrate, respectively. The test continued until 8 hours after application of the bilayer tablet, and the subjects left the hospital after 9 hours. The subjects were given their medications in the clinic by a nurse and were under observation at all times. Any symptoms or sensations disturbing or impairing the subjects' wellbeing during the experiments was carefully documented. Standard safety variables were determined under fasting conditions before each experiment. Blood glucose was monitored frequently and glucose infusion was available in case of hypoglycemia (<2.5 mmol/L). If any subject were to experience hypoglycemic symptoms, an extra blood glucose determination would be taken for safety reasons. A washout period of 1-4 days was allowed between each experiment. […]
Blood samples were taken for pharmacokinetic analysis 10 minutes before application of the drug, and at 5, 10, 15, 20, 25, 30, 40, 50, 60, 75, 90, 120, 150, 180, 210, 240, and 270 minutes and 6 and 8 hours after application of the drug. […] The peptide content of bilayer tablet samples was also analyzed by HPLC. […]

plasma insulin = assay: Plasma insulin after buccal bilayer tablet; assay type: in vivo, human; settings: 400 μg buccal bilayer tablet

CC[C@H](C)[C@H](NC(=O)[C@H](Cc1ccccc1)NC(=O)[C@H](CCC(=O)O)NC(=O)[C@H](CCCCN)NC(=O)[C@H](C)NC(=O)[C@H](C)NC(=O)[C@H](CCC(N)=O)NC(=O)CNC(=O)[C@H](CCC(=O)O)NC(=O)[C@H](CC(C)C)NC(=O)[C@H](Cc1ccc(O)cc1)NC(=O)[C@H](CO)NC(=O)[C@H](CO)NC(=O)[C@@H](NC(=O)[C@H](CC(=O)O)NC(=O)[C@H](CO)NC(=O)[C@@H](NC(=O)[C@H](Cc1ccccc1)NC(=O)[C@@H](NC(=O)CNC(=O)[C@H](CCC(=O)O)NC(=O)[C@H](C)NC(=O)[C@@H](N)Cc1c[nH]cn1)[C@@H](C)O)[C@@H](C)O)C(C)C)C(=O)N[C@@H](C)C(=O)N[C@@H](Cc1c[nH]c2ccccc12)C(=O)N[C@@H](CC(C)C)C(=O)N[C@H](C(=O)N[C@@H](CCCCN)C(=O)NCC(=O)N[C@@H](CCCNC(=N)N)C(N)=O)C(C)C [GLP-1(7-36)amide]
time by which blood glucose drops below that of the placebo group (blood glucose; after application): ≤ 20 min
time of lowest blood glucose level (blood glucose; after application): about 50 minutes
time of return of blood glucose to a normal level (blood glucose; after application): about 90 minutes
lowest blood glucose level (blood glucose; fasting healthy volunteers, at about 50 minutes): about 3 mmol/L
plasma insulin level relative to normal (plasma insulin; 15 minutes after administration): about three time normal
time of decline of plasma insulin to normal (plasma insulin; after administration): about 50 minutes
time of peak plasma insulin level (plasma insulin; after administration): about 20 minutes
